Values quoted from earlier work, collected in patent publication US6894055B2, “Thieno-2′,3′ -5,6pyrimido[3,4-A]-1,2,4-triazole derivatives as modulators of phoshoinositide 3-kinase” (Iconix Pharmaceuticals Inc., priority 2001, dated 2005).
At least one structure is not confirmed: it was looked up by name or label, or the drawing left a doubt.

Test system: immortalized immature myelomonocytic cells from NF1 −/− mice
Details: NF1 −/− myelomonocytic cells incubated with inhibitor

## COC[C@H]1OC(=O)c2coc3c2[C@@]1(C)C1=C(C3=O)[C@@H]2CCC(=O)[C@@]2(C)C[C@H]1OC(C)=O [wortmannin]
  apoptosis: undergo apoptosis
